Reference: publication PMC10978942
Substitutions are numbered along the chain they refer to. These are yes or no findings as the source states them, for the method shown. For some assays here: A result given as binding can be weak or reduced; the word gives no strength. Sequences can lack the tags named with a protein. For some assays here: Binding seen in cells or lysates may run through a third protein. Blank lines part the entries; values can stand above or below the substance they belong to.

Tests used:
[1] = biological target: T1, GST-ACE1^317-463aa (Trichoderma reesei) (UniProt Q9P8W3); assay: pull-down; 20 ug GST-ACE1^317-463aa with 20 ug His-TrSAM in 500 uL 50 mM Tris-HCl pH 6.8, 250 mM NaCl, 1.5% glycerol, 0.6% Triton X-100, 0.1% Tween-80, 4 h at 4 °C; glutathione beads; blots with anti-GST and anti-His; both purified
T1 sequence: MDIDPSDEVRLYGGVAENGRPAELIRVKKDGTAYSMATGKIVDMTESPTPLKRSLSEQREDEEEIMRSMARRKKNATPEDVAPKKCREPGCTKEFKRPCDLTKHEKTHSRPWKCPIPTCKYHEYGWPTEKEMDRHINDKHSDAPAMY

[2] = biological target: T2, ACE1-C-GFP (Trichoderma reesei) (UniProt Q9P8W3); assay: split reporter; BiFC with eGFP halves in T. reesei 1D4-6 cultured in 2% glucose repressing medium, 24 h, microscopy
T2 sequence: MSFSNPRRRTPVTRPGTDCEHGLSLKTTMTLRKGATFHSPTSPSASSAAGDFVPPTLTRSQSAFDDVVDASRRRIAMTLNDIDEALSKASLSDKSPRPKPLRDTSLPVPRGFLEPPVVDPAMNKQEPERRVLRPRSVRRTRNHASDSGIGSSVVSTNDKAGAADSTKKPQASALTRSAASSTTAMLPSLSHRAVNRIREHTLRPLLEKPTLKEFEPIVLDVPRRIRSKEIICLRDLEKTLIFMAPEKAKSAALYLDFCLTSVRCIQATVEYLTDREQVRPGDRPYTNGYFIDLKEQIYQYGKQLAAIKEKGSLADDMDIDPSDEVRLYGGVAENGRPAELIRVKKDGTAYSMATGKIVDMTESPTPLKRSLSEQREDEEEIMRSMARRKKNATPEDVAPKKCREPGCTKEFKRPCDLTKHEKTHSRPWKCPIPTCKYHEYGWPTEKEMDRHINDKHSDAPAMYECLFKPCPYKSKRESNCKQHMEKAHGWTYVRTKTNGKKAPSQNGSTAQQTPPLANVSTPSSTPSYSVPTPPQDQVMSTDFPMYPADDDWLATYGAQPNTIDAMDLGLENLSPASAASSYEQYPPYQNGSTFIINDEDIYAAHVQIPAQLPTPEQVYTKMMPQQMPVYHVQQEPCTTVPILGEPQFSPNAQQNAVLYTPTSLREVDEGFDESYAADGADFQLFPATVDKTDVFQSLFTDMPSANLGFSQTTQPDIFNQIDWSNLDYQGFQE

[3] = biological target: T3, ACE1(RK)-C-GFP (Trichoderma reesei) (UniProt Q9P8W3); assay: as above
T3 sequence: T2 sequence with R383K

[4] = biological target: T4, ACE1(RQ)-C-GFP (Trichoderma reesei) (UniProt Q9P8W3); assay: as above
T4 sequence: T2 sequence with R383Q

[5] = biological target: T2, ACE1-C-GFP (Trichoderma reesei); assay: split reporter; BiFC with eGFP halves in T. reesei 1D4-6, strains induced by lactose
[6] = biological target: T3, ACE1(RK)-C-GFP (Trichoderma reesei); assay: as above
[7] = biological target: T4, ACE1(RQ)-C-GFP (Trichoderma reesei); assay: as above
[8] = biological target: T5, ACE1^R383K-BD (Trichoderma reesei) (UniProt Q9P8W3); assay: two-hybrid; Matchmaker Gold Yeast Two-Hybrid System; trsam or xyr1 on the GAL4 activation domain (pGADT7), regulators on the GAL4 DNA-binding domain (pGBKT7); growth without histidine and adenine, 3-amino-1,2,4-triazole, X-alpha-gal
T5 sequence: T2 sequence with R383K

[9] = biological target: T6, ACE1-BD (ACE1 fused with the GAL4 DNA-binding domain) (Trichoderma reesei) (UniProt Q9P8W3); assay: as above
T6 sequence: T2 sequence

[10] = biological target: T7, ACE1^R383Q-BD (Trichoderma reesei) (UniProt Q9P8W3); assay: as above
T7 sequence: T2 sequence with R383Q

[11] = biological target: T8, Lae1-BD (Trichoderma reesei) (UniProt G0RNN3); assay: as above
T8 sequence: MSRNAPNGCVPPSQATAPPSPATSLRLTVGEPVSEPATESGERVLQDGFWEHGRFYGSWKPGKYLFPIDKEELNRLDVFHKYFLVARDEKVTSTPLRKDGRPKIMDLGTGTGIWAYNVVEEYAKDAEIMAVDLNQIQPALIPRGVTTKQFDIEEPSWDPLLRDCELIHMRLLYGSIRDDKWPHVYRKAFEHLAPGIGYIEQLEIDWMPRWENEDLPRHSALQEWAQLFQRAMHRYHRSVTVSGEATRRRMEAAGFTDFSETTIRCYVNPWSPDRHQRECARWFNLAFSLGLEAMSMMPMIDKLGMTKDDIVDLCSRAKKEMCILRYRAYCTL

binding [1]: binds
Substance: His-TrSAM (Trichoderma reesei) (enzyme)

binding [2]: binds
binding [3]: binds
binding [4]: binds weakly
binding [5]: binds weakly
binding [6]: binds weakly
Substance: N-GFP-TrSAM (Trichoderma reesei) (enzyme)
binding [7]: no binding (only strains induced by lactose)

binding [8]: binds
binding [9]: binds
binding [10]: no binding
binding [11]: no binding
Substance: TrSAM-AD (TrSAM fused with the GAL4 activation domain) (Trichoderma reesei) (enzyme)
